# Results: the supplement of paper PMC4635364
# Counter-ions that a name gives are not always drawn. This is one part of the list. Single values are uncertain here, since repeats match poorly.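 Cells: ReNCell VM human fetal ventral-midbrain neural progenitors, differentiated mitogen-free. Blinded raters compared doublecortin-stained (early neurons) or tyrosine hydroxylase-stained (dopaminergic neurons) images with untreated wells, where 0 means no change. After repeats and both raters were averaged, compounds scoring 2 or above became hits for retesting.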
# Tests used:
# ReNCell VM [1] = test: neuronal differentiation score (DCX+ cell fraction vs untreated, manual image score) (score (-3 to 3)); higher = more neuronal differentiation; conditions: 2 uM, 2 weeks
# ReNCell VM [2] = test: dopaminergic neuron differentiation score (TH+ cell fraction vs untreated, manual image score) (score (0 to 3)); higher = more TH+ dopaminergic neuron differentiation; conditions: 2 uM, 4 weeks, BDNF 10 ng/ml + GDNF 10 ng/ml
compound,measurement,setting,value
CCCCC(CC)CN1CN(CC(CC)CCCC)CC(C)(N)C1 (centres undefined),neuronal differentiation score,ReNCell VM [1]; library: Spectrum,inactive: 0
same,dopaminergic neuron differentiation score,ReNCell VM [2]; library: Spectrum,inactive: 0
OC[C@@H](O)[C@@H](O[C@@H]1O[C@H](CO)[C@@H](O)[C@H](O)[C@H]1O)[C@H](O)[C@@H](O)CO,neuronal differentiation score,ReNCell VM [1]; library: Spectrum,inactive: 0
same,dopaminergic neuron differentiation score,ReNCell VM [2]; library: Spectrum,inactive: 0
N[C@@H](Cc1cc(I)c(Oc2cc(I)c(O)c(I)c2)c(I)c1)C(=O)O,neuronal differentiation score,ReNCell VM [1]; library: Spectrum,inactive: 0
same,dopaminergic neuron differentiation score,ReNCell VM [2]; library: Spectrum,inactive: 0
COc1ccc2c(c1)CC[C@@H]1[C@@H]2CC[C@]2(C)[C@@H](O)CC[C@@H]12,neuronal differentiation score,ReNCell VM [1]; library: Spectrum,inactive: 0
same,dopaminergic neuron differentiation score,ReNCell VM [2]; library: Spectrum,inactive: 0
CN1CCC[C@H]1c1cccnc1,neuronal differentiation score,ReNCell VM [1]; library: Spectrum,inactive: 0
same,dopaminergic neuron differentiation score,ReNCell VM [2]; library: Spectrum,inactive: 0
NS(=O)(=O)c1cc2c(cc1Cl)N=C(CSCc1ccccc1)NS2(=O)=O [Benzthiazide],neuronal differentiation score,ReNCell VM [1]; library: Prestwick,inactive: 0
same,dopaminergic neuron differentiation score,ReNCell VM [2]; library: Prestwick,inactive: 0
Fc1ccc([C@@H]2CCNC[C@H]2COc2ccc3c(c2)OCO3)cc1 [Paroxetine Hydrochloride],neuronal differentiation score,ReNCell VM [1]; library: Prestwick,inactive: 0
same,dopaminergic neuron differentiation score,ReNCell VM [2]; library: Prestwick,inactive: 0
CCCCS(=N)(=O)CCC(N)C(=O)O (centres undefined),neuronal differentiation score,ReNCell VM [1]; library: Spectrum,inactive: 0
same,dopaminergic neuron differentiation score,ReNCell VM [2]; library: Spectrum,inactive: 0
CC[N+]1(C)C2CCC1CC(OC(=O)C1CCC(C(=O)OC3CC4CCC(C3)[N+]4(C)CC)(c3ccccc3)c3ccccc31)C2 (stereo not drawn) [beta- Belladonnine dichloroethylate],neuronal differentiation score,ReNCell VM [1]; library: Phytochemical,inactive: 0
same,dopaminergic neuron differentiation score,ReNCell VM [2]; library: Phytochemical,inactive: 0
COc1cc(N)c(Cl)cc1C(=O)CCC1CCN(CCNS(C)(=O)=O)CC1,neuronal differentiation score,ReNCell VM [1]; library: Tocriscreen,inactive: 0
same,dopaminergic neuron differentiation score,ReNCell VM [2]; library: Tocriscreen,inactive: 0
CCO/C(O)=C1\C(C)=NC(c2ccccc2)=C(C(=O)OCc2ccc([N+](=O)[O-])cc2)C1C#Cc1ccccc1 (centres undefined),neuronal differentiation score,ReNCell VM [1]; library: Tocriscreen,inactive: 0
same,dopaminergic neuron differentiation score,ReNCell VM [2]; library: Tocriscreen,inactive: 0
CC[C@H](C)C(=O)O[C@H]1CCC=C2C=C[C@H](C)[C@H](CC[C@@H]3C[C@@H](O)CC(=O)O3)[C@H]21,neuronal differentiation score,ReNCell VM [1]; library: Spectrum,active: 2
same,dopaminergic neuron differentiation score,ReNCell VM [2]; library: Spectrum,inactive: 0
O=C(Cn1ccnc1[N+](=O)[O-])NCCO [Etanidazole],neuronal differentiation score,ReNCell VM [1]; library: Prestwick,inactive: 0
same,dopaminergic neuron differentiation score,ReNCell VM [2]; library: Prestwick,inactive: 0
CCN(CC)CC(=O)Nc1c(C)cccc1C,neuronal differentiation score,ReNCell VM [1]; library: Spectrum,inactive: 0
same,dopaminergic neuron differentiation score,ReNCell VM [2]; library: Spectrum,inactive: 0
N=C(N)c1ccc(N2CCN(C3CCN(CC(=O)O)CC3)CC2)cc1,neuronal differentiation score,ReNCell VM [1]; library: Tocriscreen,inactive: -1
same,dopaminergic neuron differentiation score,ReNCell VM [2]; library: Tocriscreen,inactive: 0
CON,neuronal differentiation score,ReNCell VM [1]; library: Spectrum,inactive: 0
same,dopaminergic neuron differentiation score,ReNCell VM [2]; library: Spectrum,inactive: 0
CCCCCCCC/C=C\CCCCCCCC(N)=O [Oleamide],neuronal differentiation score,ReNCell VM [1]; library: Tocriscreen,inactive: 0
same,dopaminergic neuron differentiation score,ReNCell VM [2]; library: Tocriscreen,inactive: 0
COc1c(OC)c(OC)c2c(c1OC)c(=O)c1ccccc1n2C [Melicopicine],neuronal differentiation score,ReNCell VM [1]; library: Phytochemical,inactive: 0
same,dopaminergic neuron differentiation score,ReNCell VM [2]; library: Phytochemical,inactive: 0
COC1=C(O)C(=O)c2c(cc3oc(C(C)=O)c(O)c3c2O)C1=O,neuronal differentiation score,ReNCell VM [1]; library: Spectrum,inactive: 0
same,dopaminergic neuron differentiation score,ReNCell VM [2]; library: Spectrum,inactive: 0
c1ccc(C(NCc2cccnc2)(c2ccccc2)c2ccccc2)cc1,neuronal differentiation score,ReNCell VM [1]; library: Tocriscreen,inactive: 0
same,dopaminergic neuron differentiation score,ReNCell VM [2]; library: Tocriscreen,inactive: 0
c1ccc2c(c1)CCCC2C1=NCCN1 (centres undefined),neuronal differentiation score,ReNCell VM [1]; library: Spectrum,inactive: 0
same,dopaminergic neuron differentiation score,ReNCell VM [2]; library: Spectrum,inactive: 0
CC(C)(C)NC[C@H](O)COc1nsnc1N1CCOCC1 [Timolol maleate salt],neuronal differentiation score,ReNCell VM [1]; library: Prestwick,inactive: 0
same,dopaminergic neuron differentiation score,ReNCell VM [2]; library: Prestwick,inactive: 0
COc1ccc2c3c([nH]c2c1)[C@H]1C[C@H]2[C@H](C[C@@H](O)[C@H](OC)[C@H]2C(=O)O)CN1CC3 [Reserpinic acid hydrochloride],neuronal differentiation score,ReNCell VM [1]; library: Phytochemical,inactive: 0
same,dopaminergic neuron differentiation score,ReNCell VM [2]; library: Phytochemical,inactive: 0
Cc1cc(C)c(S(=O)(=O)Nc2ccccc2C(F)(F)F)c(C)c1,neuronal differentiation score,ReNCell VM [1]; library: Tocriscreen,inactive: 0
same,dopaminergic neuron differentiation score,ReNCell VM [2]; library: Tocriscreen,inactive: 0
NC(=O)C(c1ccccc1)(c1ccccc1)[C@@H]1CCN(CCc2ccc3c(c2)CCO3)C1,neuronal differentiation score,ReNCell VM [1]; library: Spectrum,inactive: 0
same,dopaminergic neuron differentiation score,ReNCell VM [2]; library: Spectrum,inactive: 0
CC(C)NC(=N)NC(=N)Nc1ccc(Cl)cc1,neuronal differentiation score,ReNCell VM [1]; library: Spectrum,inactive: 0
same,dopaminergic neuron differentiation score,ReNCell VM [2]; library: Spectrum,inactive: 0
COC(=O)Nc1nc2cc(C(=O)c3ccc(F)cc3)ccc2[nH]1 [Flubendazol],neuronal differentiation score,ReNCell VM [1]; library: Prestwick,inactive: 0
same,dopaminergic neuron differentiation score,ReNCell VM [2]; library: Prestwick,inactive: 0
COc1cc(N)c(Cl)cc1C(=O)NC1CCN(Cc2ccccc2)CC1 [Clebopride maleate],neuronal differentiation score,ReNCell VM [1]; library: Prestwick,inactive: 0
same,dopaminergic neuron differentiation score,ReNCell VM [2]; library: Prestwick,inactive: 0
CN(N=O)C(=O)N[C@@H](C=O)[C@@H](O)[C@H](O)[C@H](O)CO [Streptozocin],neuronal differentiation score,ReNCell VM [1]; library: Tocriscreen,inactive: 0
same,dopaminergic neuron differentiation score,ReNCell VM [2]; library: Tocriscreen,inactive: 0
CN(C)CC(=O)OC[C@@H](O)[C@@H](O)[C@H](O)[C@@H](O)C(=O)O,neuronal differentiation score,ReNCell VM [1]; library: Spectrum,inactive: 0
same,dopaminergic neuron differentiation score,ReNCell VM [2]; library: Spectrum,inactive: 0
O=C(Nc1cccc(C(=O)Nc2ccc(S(=O)(=O)O)c3cc(S(=O)(=O)O)cc(S(=O)(=O)O)c23)c1)Nc1cccc(C(=O)Nc2ccc(S(=O)(=O)O)c3cc(S(=O)(=O)O)cc(S(=O)(=O)O)c23)c1,neuronal differentiation score,ReNCell VM [1]; library: LOPAC,inactive: -1
same,dopaminergic neuron differentiation score,ReNCell VM [2]; library: LOPAC,inactive: 0
O=C(CCCCC(=O)Nc1c(I)cc(I)c(C(=O)O)c1I)Nc1c(I)cc(I)c(C(=O)O)c1I,neuronal differentiation score,ReNCell VM [1]; library: Spectrum,inactive: 0
same,dopaminergic neuron differentiation score,ReNCell VM [2]; library: Spectrum,inactive: 0
COCCCOc1ccnc(C[S+]([O-])c2nc3ccccc3[nH]2)c1C (centres undefined),neuronal differentiation score,ReNCell VM [1]; library: Spectrum,inactive: 0
same,dopaminergic neuron differentiation score,ReNCell VM [2]; library: Spectrum,inactive: 0
COc1nccc(-c2c(-c3ccc(F)cc3)ncn2C2CCC(O)CC2)n1 (centres undefined),neuronal differentiation score,ReNCell VM [1]; library: Tocriscreen,active: 3
same,dopaminergic neuron differentiation score,ReNCell VM [2]; library: Tocriscreen,inactive: 0
Clc1ccccc1CN1CCc2sccc2C1,neuronal differentiation score,ReNCell VM [1]; library: Spectrum,inactive: 0
same,dopaminergic neuron differentiation score,ReNCell VM [2]; library: Spectrum,inactive: 0
CC(O)CC(C)(C)O (centres undefined),neuronal differentiation score,ReNCell VM [1]; library: Spectrum,inactive: 0
same,dopaminergic neuron differentiation score,ReNCell VM [2]; library: Spectrum,inactive: 1
CC(C)=CCC/C(C)=C/COc1ccc2ccc(=O)oc2c1,neuronal differentiation score,ReNCell VM [1]; library: Spectrum,inactive: 0
same,dopaminergic neuron differentiation score,ReNCell VM [2]; library: Spectrum,inactive: 0
O=C(NCCCCN1CCN(c2cccc(Cl)c2Cl)CC1)c1ccc2c(c1)Cc1ccccc1-2,neuronal differentiation score,ReNCell VM [1]; library: Tocriscreen,inactive: 0
same,dopaminergic neuron differentiation score,ReNCell VM [2]; library: Tocriscreen,inactive: 0
N[C@@H](CSS(=O)(=O)O)C(=O)O [S-Sulfo-L-cysteine sodium salt],neuronal differentiation score,ReNCell VM [1]; library: Tocriscreen,inactive: 0
same,dopaminergic neuron differentiation score,ReNCell VM [2]; library: Tocriscreen,active: 3
CC(=O)OCC(=O)[C@@]1(O)CC[C@H]2[C@@H]3CCC4=CC(=O)CC[C@]4(C)[C@@]3(F)[C@@H](O)C[C@@]21C,neuronal differentiation score,ReNCell VM [1]; library: Spectrum,inactive: 0
same,dopaminergic neuron differentiation score,ReNCell VM [2]; library: Spectrum,inactive: 1
CC(NCCC(c1ccccc1)c1ccccc1)c1ccccc1 (centres undefined) [Fendiline hydrochloride],neuronal differentiation score,ReNCell VM [1]; library: Prestwick,inactive: 0
same,dopaminergic neuron differentiation score,ReNCell VM [2]; library: Prestwick,inactive: 0
CCN(CC)C(=O)N1CCN(C)CC1 [Diethylcarbamazine citrate],neuronal differentiation score,ReNCell VM [1]; library: Prestwick,inactive: 0
same,dopaminergic neuron differentiation score,ReNCell VM [2]; library: Prestwick,inactive: 0
CC1=C(CC(=O)O)c2cc(F)ccc2/C1=C\c1ccc([S+](C)[O-])cc1 (centres undefined),neuronal differentiation score,ReNCell VM [1]; library: Spectrum,inactive: 0
same,dopaminergic neuron differentiation score,ReNCell VM [2]; library: Spectrum,inactive: 0
Oc1ccc(Cn2cc[nH]c2=S)cc1 [1-(4-Hydroxybenzyl)imidazole-2-thiol],neuronal differentiation score,ReNCell VM [1]; library: LOPAC,inactive: 0
same,dopaminergic neuron differentiation score,ReNCell VM [2]; library: LOPAC,inactive: 0
NC[C@H]1O[C@H](O[C@H]2[C@H](O)[C@@H](O[C@H]3O[C@H](CO)[C@@H](O)[C@H](N)[C@H]3O)[C@H](N)C[C@@H]2N)[C@H](N)C[C@@H]1O,neuronal differentiation score,ReNCell VM [1]; library: Spectrum,inactive: 0
same,dopaminergic neuron differentiation score,ReNCell VM [2]; library: Spectrum,inactive: 0
CC(C)N1CCN(c2ccc(OCC3COC(Cn4cncn4)(c4ccc(Cl)cc4Cl)O3)cc2)CC1 (centres undefined),neuronal differentiation score,ReNCell VM [1]; library: Spectrum,inactive: 0
same,dopaminergic neuron differentiation score,ReNCell VM [2]; library: Spectrum,inactive: 0
CC(C)(C)NC[C@@H](O)COc1cccc2c1CCCC2=O [(+) -Levobunolol hydrochloride],neuronal differentiation score,ReNCell VM [1]; library: Prestwick,inactive: 0
same,dopaminergic neuron differentiation score,ReNCell VM [2]; library: Prestwick,inactive: 0

# An excerpt taken from the entries so far, for reference:
compound,measurement,setting,value
CC(C)NC(=N)NC(=N)Nc1ccc(Cl)cc1,neuronal differentiation score,ReNCell VM [1]; library: Spectrum,inactive: 0
same,dopaminergic neuron differentiation score,ReNCell VM [2]; library: Spectrum,inactive: 0
COC(=O)Nc1nc2cc(C(=O)c3ccc(F)cc3)ccc2[nH]1 [Flubendazol],neuronal differentiation score,ReNCell VM [1]; library: Prestwick,inactive: 0
same,dopaminergic neuron differentiation score,ReNCell VM [2]; library: Prestwick,inactive: 0
COc1cc(N)c(Cl)cc1C(=O)NC1CCN(Cc2ccccc2)CC1 [Clebopride maleate],neuronal differentiation score,ReNCell VM [1]; library: Prestwick,inactive: 0

# Two entries picked at random from those above:
compound,measurement,setting,value
CC(NCCC(c1ccccc1)c1ccccc1)c1ccccc1 (centres undefined) [Fendiline hydrochloride],neuronal differentiation score,ReNCell VM [1]; library: Prestwick,inactive: 0
Cc1cc(C)c(S(=O)(=O)Nc2ccccc2C(F)(F)F)c(C)c1,dopaminergic neuron differentiation score,ReNCell VM [2]; library: Tocriscreen,inactive: 0
